At least one compound was matched to its structure with a doubt left.
How the values were obtained:
3βHSD1 [1] = assay: 3βHSD1 phosphorylation (pTyr, pY344) by immunoprecipitation and western blot; assay type: cell-based, human; details: C4-2 and LNCaP cells; anti-phospho-tyrosine and anti-3βHSD1 pY344 antibodies
LNCaP cells [2] = assay: Trypan blue cell counting, LNCaP; assay type: cell-based, human; details: ibrutinib or DHEA, indicated times
C4-2 cells [3] = assay: Trypan blue cell counting, C4-2; assay type: cell-based, human; details: ibrutinib or DHEA, indicated times
LNCaP cells [4] = assay: [3H]-DHEA metabolism by HPLC in LNCaP cells; assay type: cell-based, human; details: inhibitor 1 hour, then [3H]-DHEA 5 hours
C4-2 cells [5] = assay: [3H]-DHEA metabolism by HPLC in C4-2 cells; assay type: cell-based, human; details: inhibitor 1 hour, then [3H]-DHEA 5 hours
VCaP cells = assay: [3H]-DHEA metabolism by HPLC in VCaP cells; assay type: cell-based, human; details: various concentrations of zanubrutinib, indicated times
JEG3 cells = assay: Estradiol production from DHEA, mass spectrometry of medium; assay type: cell-based, human; details: 10 μM zanubrutinib, DHEA added 16 hours later
3βHSD1 [6] = assay: NAD+ turnover assay of purified 3βHSD1; assay type: biochemical, human; details: WT enzyme purified from zanubrutinib-treated cells; DHEA 1-20 μM, NAD+ 0.1 mM
3βHSD1 [7] = assay: 3βHSD1 protein level by western blot; assay type: cell-based, human; details: C4-2 cells; 2, 5, or 10 μM zanubrutinib for 48 hours
3βHSD1 [8] = assay: 3βHSD1 dimerization, co-immunoprecipitation of Flag-3βHSD1 and GST-3βHSD1; assay type: cell-based, human; details: C4-2 cells; DHEA 2 hours; zanubrutinib 10 μM 24 hours
LNCaP cells [9] = assay: Cell proliferation WST-1 assay, LNCaP; assay type: cell-based, human; details: in the presence of DHEA
C4-2 cells [10] = assay: Cell proliferation WST-1 assay, C4-2; assay type: cell-based, human; details: in the presence of DHEA
LNCaP cells [11] = assay: AR target gene expression by qPCR, LNCaP; assay type: cell-based, human; details: in the presence of DHEA, 48 hours
C4-2 cells [12] = assay: AR target gene expression by qPCR, C4-2; assay type: cell-based, human; details: in the presence of DHEA, 48 hours
C4-2 CRPC tumors = assay: C4-2 CRPC xenograft, castration plus DHEA pellet; assay type: in vivo, mice
VCaP CRPC tumors = assay: VCaP CRPC xenograft, castration plus DHEA pellet; assay type: in vivo, mice
C4-2 xenografts = assay: C4-2 xenograft in eugonadal mice; assay type: in vivo
Method: (§1) Total RNA was extracted with GenElute Mammalian Total RNA miniprep kit (Sigma-Aldrich), and 1 μg RNA was reverse-transcribed to complementary DNA (cDNA) with the iScript cDNA Synthesis Kit (Bio-Rad). An ABI 7500 Real-Time PCR instrument (Applied Biosystems) was used to perform quantitative PCR (qPCR) analysis, using iTaq Fast SYBR Green Supermix with ROX (Bio-Rad) in 96-well plates at a final reaction volume of 10 μl. The qPCR analysis was carried out in triplicate with the following primer sets:
All mouse studies were performed under a protocol approved by the Institutional Animal Care and Use Committee of the Cleveland Clinic Lerner Research Institute. All NOD scid gamma (NSG) male mice (6 to 8 weeks old) were purchased from the Jackson Laboratory. Six to 10 million cells were injected subcutaneously in mice. After tumors reached 150-200 mm^3, mice were surgically orchiectomized and implanted with 5 mg 90-day sustained-release DHEA pellets to mimic human adrenal DHEA production in men with CRPC.
(§2) To evaluate whether zanubrutinib suppresses tumor growth, 6 million C4-2 or 10 million VCaP cells (100 μl in 50% Matrigel and 50% growth media) were subcutaneously injected into mice. […] Tumor volume and progression-free survival were determined as described above. […] The number of mice in each group was determined by those that survived surgical procedures and had reached the 200 mm^3 tumor volume required to initiate treatment. Tumor diameters were measured by digital calipers three times per week and fresh frozen upon mouse sacrifice.
(§3) Androgens in xenografts were assessed by liquid chromatography tandem mass spectrometry as reported previously with slight modifications (Li et al., 2021; Zhu et al., 2018). […]
Tumor RNA was extracted from the mice used in the C4-2 zanubrutinib treatment experiment, 4 samples from each group. […] Hybrid signals were analyzed with Illumina GenomeStudio Software 2011.1 and normalized to the vehicle control group. […]

VCaP xenografts = assay: VCaP xenograft in eugonadal mice; assay type: in vivo
Method: as §1
All mouse studies were performed under a protocol approved by the Institutional Animal Care and Use Committee of the Cleveland Clinic Lerner Research Institute. […]
as §2, §3

fresh prostate tissues = assay: [3H]-DHEA metabolism in fresh human prostate tissue, HPLC; details: zanubrutinib vs DMSO
3βHSD1 [13] = assay: 3βHSD1 phosphorylation in human prostate tissue, immunoprecipitation and western blot; details: zanubrutinib vs DMSO, 10 nM DHEA, seven days

C=CC(=O)N1CCC[C@@H](n2nc(-c3ccc(Oc4ccccc4)cc3)c3c(N)ncnc32)C1 [ibrutinib]
DHEA-induced phosphorylation of 3βHSD1 (3βHSD1 [1]): blocked DHEA-induced phosphorylation of 3βHSD1
viability (cell number, Trypan blue) (LNCaP cells [2]): consistent with the cell proliferation results
viability (cell number, Trypan blue) (C4-2 cells [3]): consistent with the cell proliferation results

C=CC(=O)N1CCC([C@@H]2CCNc3c(C(N)=O)c(-c4ccc(Oc5ccccc5)cc4)nn32)CC1 [zanubrutinib, Zanubrutinib]
DHEA metabolism (LNCaP cells [4]): significantly decreased DHEA metabolism
DHEA metabolism (C4-2 cells [5]): significantly decreased DHEA metabolism
DHEA metabolism (VCaP cells): significantly decreased DHEA metabolism
production of estradiol from DHEA (JEG3 cells): inhibits the production of estradiol from DHEA
DHEA-induced phosphorylation of 3βHSD1 (3βHSD1 [1]): blocked DHEA-induced phosphorylation of 3βHSD1
catalytic activity (Vmax) (3βHSD1 [6]): lower catalytic activity
level of 3βHSD1 protein expression (3βHSD1 [7]): nor did zanubrutinib affect the level of 3βHSD1 protein expression
Co-immunoprecipitation of Flag-3βHSD1 and GST-3βHSD1 (dimerization) (3βHSD1 [8]): inhibited
cell proliferation (LNCaP cells [9]): effectively inhibited proliferation
cell proliferation (C4-2 cells [10]): effectively inhibited proliferation
AR transcriptional activity (AR target gene expression) (LNCaP cells [11]): effectively inhibited
AR transcriptional activity (AR target gene expression) (C4-2 cells [12]): effectively inhibited
tumor growth (C4-2 CRPC tumors; C4-2, castration + DHEA pellet, 15 mg/kg oral gavage twice daily, vs vehicle, P<0.0001): significant tumor growth inhibition
AR-regulated genes, RNA-Seq and Gene Set Enrichment Analysis (C4-2 CRPC tumors; C4-2 CRPC tumors, 4 samples per group): inhibited AR-regulated genes
androgen production (tumor testosterone by mass spectrometry) (C4-2 CRPC tumors; C4-2 CRPC xenograft tumors): lower androgen production
AR target gene (PSA, FKBP5, TMPRS9) expression (C4-2 CRPC tumors; C4-2 CRPC xenograft tumors, qPCR): lower
progression-free survival (time to 3-fold increase in tumor volume) (C4-2 CRPC tumors; C4-2 CRPC, log-rank P<0.0001): similarly significant
androgen production (tumor testosterone by mass spectrometry) (VCaP CRPC tumors; VCaP CRPC xenograft tumors): lower androgen production
AR target gene (PSA, FKBP5, TMPRS9) expression (VCaP CRPC tumors; VCaP CRPC xenograft tumors, qPCR): lower
progression-free survival (time to 3-fold increase in tumor volume) (VCaP CRPC tumors; VCaP CRPC, log-rank P<0.0001): similarly significant
tumor growth (VCaP CRPC tumors; VCaP, castration + DHEA pellet, 15 mg/kg oral gavage twice daily, vs vehicle, P<0.0001): significant tumor growth inhibition
progression-free survival (time to 3-fold increase in tumor volume) (C4-2 xenografts; C4-2, eugonadal mice): but not xenografts grown in the eugonadal mice
tumor growth (C4-2 xenografts; C4-2, eugonadal mice, 15 mg/kg oral gavage twice daily): virtually no effect on growth
AR regulation, RNA-Seq and Gene Set Enrichment Analysis (C4-2 xenografts; C4-2 eugonadal tumors, 4 samples per group): no significant effect on AR regulation
progression-free survival (time to 3-fold increase in tumor volume) (VCaP xenografts): but not xenografts grown in the eugonadal mice
tumor growth (VCaP xenografts; 15 mg/kg oral gavage twice daily): virtually no effect on growth
metabolism of DHEA (fresh prostate tissues; fresh prostate tissues of 7 patients with adrenal-permissive HSD3B1 allele): inhibited
metabolic flux from DHEA to AD (fresh prostate tissues; human prostate tissue): reduced
phosphorylation of 3βHSD1 (3βHSD1 [13]): reduced

From patent publication US20240197744A1, “TREATING SEX STEROID DEPENDENT CANCER WITH BMX INHIBITORS” (The Cleveland Clinic Foundation, priority 2021, published 2024)
